In US20240016783A1, “RILUZOLE FOR THE TREATMENT OF ALZHEIMER'S DISEASE” (Icahn School of Medicine at Mount Sinai, priority 2020, published 2024):
Read-outs that look alike come from different tables or passages of the source.

Tested on: Alzheimer's disease patients
[1] = FDG SUVR change, 50 mg twice a day, 6 months, n = 22
[2] = riluzole vs placebo, 6 month change in FDG PET, Cohen's d

Compound: Nc1nc2ccc(OC(F)(F)F)cc2s1 [Riluzole, 2-Amino-6-(trifluoromethoxy)benzothiazole]
- FDG PET longitudinal change over 6 months, AD Progression score, Mean (AD Progression Classifier score change, 50 mg twice a day, 6 months, n = 22): 0.245
- FDG PET longitudinal change over 6 months, Frontal, Mean [1]: −0.077
- FDG PET longitudinal change over 6 months, Hippocampus, Mean [1]: −0.002
- FDG PET longitudinal change over 6 months, Orbitofrontal, Mean [1]: 0.014
- FDG PET longitudinal change over 6 months, Parietal, Mean [1]: −0.005
- FDG PET longitudinal change over 6 months, Post Cing-Precuneus, Mean [1]: −0.006
- FDG PET longitudinal change over 6 months, Posterior cingulate, Mean [1]: −0.005
- FDG PET longitudinal change over 6 months, Precuneus, Mean [1]: (−0.007,
- FDG PET longitudinal change over 6 months, Right Hippocampus, Mean [1]: 0.002
- FDG PET longitudinal change over 6 months, Temporal, Mean [1]: 0.002
- Effect size (d), less decline than placebo, younger group (post-hoc subgroup, PC SUVR change (FIG. 3D), N=7 placebo and 7 riluzole): 0.96
- Effect size, less decline than placebo, ApoE4 carriers (post-hoc subgroup, PC SUVR change (FIG. 3D), N=8 placebo, 15 riluzole): 1.526
- Effect size (d), less decline than placebo, ApoE4 non-carriers (post-hoc subgroup, PC SUVR change (FIG. 3D), N=11 placebo, 7 riluzole): 0.89
- Effect size (d), less decline than placebo, older group (post-hoc subgroup, PC SUVR change (FIG. 3D), N=13 placebo, 15 riluzole): 1.370
- Effect size (d), AD Progression score [2]: 0.57
- Effect size (d), Frontal [2]: 0.70
- Effect size (d), Hippocampus [2]: 0.50
- Effect size (d), Orbitofrontal [2]: 0.86
- Effect size (d), Parietal [2]: 0.54
- Effect size (d), Post Cing-Precuneus [2]: 0.88
- Effect size (d), Posterior cingulate [2]: 1.31
- Effect size (d), Precuneus [2]: 0.84
- Effect size (d), Right Hippocampus [2]: 0.72
- Effect size (d), Temporal (lateral temporal) [2]: 0.80
- Effect size (d), Frontal (riluzole vs placebo, 6 month change in FDG PET, Cohen's d, listed as riluzole): 0.67
- Difference to placebo in control regions (FDG PET) (subcortical white matter, pons, and cerebellar vermis): No differences were observed
